Measurements reported in the supplement of paper PMC11060735.
Where a name gives a salt, the structure may show the parent alone. ± gives the standard deviation of the averaged measurements. Over roughly 1,800 compounds, “GFP- (p16Ink4a-) cell count relative to negative-control wells” has its median near 0.99; the lowest 2% begin near 0.5. This is one part of the list.

System: mouse p16Ink4a+/- lung fibroblasts (INKBRITE, bleomycin-injured)
Assay: GFP- (p16Ink4a-) cell count relative to negative-control wells (fold of vehicle); higher = more p16Ink4a- cells surviving
Conditions: 1 µM; 3 days

| Structure (SMILES) | GFP- |
| --- | --- |
| CC(C)(Oc1ccc(Cl)cc1)C(=O)O [Clofibric Acid] | 1.12 |
| CC1(C)[C@@H](O)CC[C@]2(C)[C@H]3C(=O)C=C4[C@@H]5C[C@@](C)(C(=O)O)CC[C@]5(C)CC[C@@]4(C)[C@]3(C)CC[C@@H]12 [Enoxolone] | 1.02 |
| Cc1ccccc1C(=O)Nc1ccc(C(=O)N2CCCC(N(C)C)c3ccccc32)cc1 (centres undefined) [Mozavaptan] | 0.893 |
| CCO[C@@H]1OC(=O)C[C@@H]1NC(=O)[C@@H]1CCCN1C(=O)[C@@H](NC(=O)c1ccc(N)c(Cl)c1)C(C)(C)C | 1.02 |
| NC12CC3CC(CC(C3)C1)C2 [Amantadine] | 1.07 |
| C[C@@H](c1ncncc1F)[C@](O)(Cn1cncn1)c1ccc(F)cc1F [Voriconazole] | 0.915 |
| CCOC(=O)C1=C(N)Oc2ccc(Br)cc2[C@H]1[C@H](C#N)C(=O)OCC | 1.02 |
| CC(=O)O[C@]1(C(C)=O)CC[C@H]2[C@@H]3CCC4=CC(=O)CCC4=C3[C@@H](c3ccc(N(C)C)cc3)C[C@@]21C [Ulipristal] | 1.04 |
| Cc1cccc(C#Cc2ccccc2)n1 | 1.06 |
| O=C(C1CCCCC1)N1CC(=O)N2CCc3ccccc3C2C1 (centres undefined) [Praziquantel] | 0.998 |
| O=C1OC(CN2CCOCC2)CN1/N=C/c1ccc([N+](=O)[O-])o1 (centres undefined) [Furaltadone] | 1 |
| CCN(CCO)CCCOc1ccc2c(Nc3cc(CC(=O)Nc4cccc(F)c4)[nH]n3)ncnc2c1 | 0.97 ± 0.11 |
| C=CC1=C(C(=O)O)N2C(=O)[C@@H](NC(=O)/C(=N\O)c3csc(N)n3)[C@H]2SC1 [Cefdinir] | 0.894 |
| Cc1cc(C)c(Nc2ccnc(Nc3ccc(C#N)cc3)n2)c(C)c1 [Dapivirine] | 1.05 |
| CC(C)C[C@H](NC(=O)[C@H](CCc1ccccc1)NC(=O)CN1CCOCC1)C(=O)N[C@@H](Cc1ccccc1)C(=O)N[C@@H](CC(C)C)C(=O)[C@@]1(C)CO1 [Carfilzomib] | 0.433 |
| CCCC(=O)OCO/C(O)=C1\C(C)=NC(C)=C(C(=O)OC)C1c1cccc(Cl)c1Cl (centres undefined) [Clevidipine] | 1.03 |
| O=C[C@H](O)[C@@H](O)[C@H](O)[C@H](O)CO [D-glucose] | 1.03 |
| Cc1cc(Nc2ccc(NC(=O)c3ccc(Nc4ccnc5ccccc45)cc3)cc2)nc(N)n1 | 0.955 ± 0.18 |
| COc1ccc(-c2cnc3c(-c4cccc5ncccc45)cnn3c2)cc1 | 1.1 |
| C=CC(=O)Nc1cccc(Nc2nc(Nc3ccc(OCCOC)cc3)ncc2F)c1 | 0.914 |
| CCN(CC)C(=O)/C(C#N)=C/c1cc(O)c(O)c([N+](=O)[O-])c1 [Entacapone] | 0.982 ± 0.1 |
| Cc1ccc(C(=O)NCCCCCC(=O)Nc2ccccc2N)cc1 | 0.741 ± 0.13 |
| CN1c2cc(O)c(N=NC(N)=O)cc2CC1S(=O)(=O)O (centres undefined) [Carbazochrome sodium sulfonate] | 1.12 |
| CCCCc1oc2ccc(NS(C)(=O)=O)cc2c1C(=O)c1ccc(OCCCN(CCCC)CCCC)cc1 [Dronedarone] | 1.09 |
| O=C1CC2(CCCC2)CC(=O)N1CCCCN1CCN(c2ncccn2)CC1 [Buspirone] | 0.997 |

As a working copy, part of the list above.

| Structure (SMILES) | GFP- |
| --- | --- |
| Cc1ccccc1C(=O)Nc1ccc(C(=O)N2CCCC(N(C)C)c3ccccc32)cc1 (centres undefined) [Mozavaptan] | 0.893 |
| CCO[C@@H]1OC(=O)C[C@@H]1NC(=O)[C@@H]1CCCN1C(=O)[C@@H](NC(=O)c1ccc(N)c(Cl)c1)C(C)(C)C | 1.02 |
| NC12CC3CC(CC(C3)C1)C2 [Amantadine] | 1.07 |
| C[C@@H](c1ncncc1F)[C@](O)(Cn1cncn1)c1ccc(F)cc1F [Voriconazole] | 0.915 |
| CCOC(=O)C1=C(N)Oc2ccc(Br)cc2[C@H]1[C@H](C#N)C(=O)OCC | 1.02 |
| CC(=O)O[C@]1(C(C)=O)CC[C@H]2[C@@H]3CCC4=CC(=O)CCC4=C3[C@@H](c3ccc(N(C)C)cc3)C[C@@]21C [Ulipristal] | 1.04 |
| Cc1cccc(C#Cc2ccccc2)n1 | 1.06 |
| O=C(C1CCCCC1)N1CC(=O)N2CCc3ccccc3C2C1 (centres undefined) [Praziquantel] | 0.998 |
| O=C1OC(CN2CCOCC2)CN1/N=C/c1ccc([N+](=O)[O-])o1 (centres undefined) [Furaltadone] | 1 |
| CCN(CCO)CCCOc1ccc2c(Nc3cc(CC(=O)Nc4cccc(F)c4)[nH]n3)ncnc2c1 | 0.97 ± 0.11 |
| C=CC1=C(C(=O)O)N2C(=O)[C@@H](NC(=O)/C(=N\O)c3csc(N)n3)[C@H]2SC1 [Cefdinir] | 0.894 |
| Cc1cc(C)c(Nc2ccnc(Nc3ccc(C#N)cc3)n2)c(C)c1 [Dapivirine] | 1.05 |
| CC(C)C[C@H](NC(=O)[C@H](CCc1ccccc1)NC(=O)CN1CCOCC1)C(=O)N[C@@H](Cc1ccccc1)C(=O)N[C@@H](CC(C)C)C(=O)[C@@]1(C)CO1 [Carfilzomib] | 0.433 |
| CCCC(=O)OCO/C(O)=C1\C(C)=NC(C)=C(C(=O)OC)C1c1cccc(Cl)c1Cl (centres undefined) [Clevidipine] | 1.03 |
| O=C[C@H](O)[C@@H](O)[C@H](O)[C@H](O)CO [D-glucose] | 1.03 |
| Cc1cc(Nc2ccc(NC(=O)c3ccc(Nc4ccnc5ccccc45)cc3)cc2)nc(N)n1 | 0.955 ± 0.18 |
| COc1ccc(-c2cnc3c(-c4cccc5ncccc45)cnn3c2)cc1 | 1.1 |
| C=CC(=O)Nc1cccc(Nc2nc(Nc3ccc(OCCOC)cc3)ncc2F)c1 | 0.914 |
| CCN(CC)C(=O)/C(C#N)=C/c1cc(O)c(O)c([N+](=O)[O-])c1 [Entacapone] | 0.982 ± 0.1 |
| Cc1ccc(C(=O)NCCCCCC(=O)Nc2ccccc2N)cc1 | 0.741 ± 0.13 |
| CN1c2cc(O)c(N=NC(N)=O)cc2CC1S(=O)(=O)O (centres undefined) [Carbazochrome sodium sulfonate] | 1.12 |
| CCCCc1oc2ccc(NS(C)(=O)=O)cc2c1C(=O)c1ccc(OCCCN(CCCC)CCCC)cc1 [Dronedarone] | 1.09 |

The list goes on.

| Structure (SMILES) | GFP- |
| --- | --- |
| O=C(CCCN1CCN(c2ccccn2)CC1)c1ccc(F)cc1 [Azaperone] | 0.895 |
| CC(N)C12CC3CC(CC(C3)C1)C2 (centres undefined) [Rimantadine] | 1.09 |
| C/C=C1/[C@H]2C=C(C)C[C@]1(N)c1ccc(O)nc1C2 [(-)-Huperzine A (HupA)] | 0.949 |
| COc1ccc(C[C@@H]2c3cc(OC)c(OC)cc3CC[N@+]2(C)CCC(=O)OCCCCCOC(=O)CC[N@@+]2(C)CCc3cc(OC)c(OC)cc3[C@H]2Cc2ccc(OC)c(OC)c2)cc1OC [Cisatracurium Besylate] | 1 |
| CCOC(=O)c1c(C)n(C)c2ccc(O)cc12 [Mecarbinate] | 1.21 |
| O=C1c2ccccc2C(=O)C1c1ccccc1 [Phenindione] | 1.01 |
| COc1ccc2cc1Oc1ccc(cc1)C[C@H]1c3c(cc4c(c3Oc3cc5c(cc3OC)CCN(C)[C@@H]5C2)OCO4)CCN1C [Cepharanthine] | 0.859 |
| O=C(O)c1cc(-c2ccccc2)nc2ccccc12 [Cinchophen] | 0.932 |
| CN(C)C(=O)c1ccc(S(=O)(=O)c2ccc(NC(=O)[C@@](C)(O)C(F)(F)F)c(Cl)c2)cc1 | 0.95 |
| CC1(C)O[C@@H]2C[C@H]3[C@@H]4CCC5=CC(=O)C=C[C@]5(C)[C@H]4[C@@H](O)C[C@]3(C)[C@]2(C(=O)CO)O1 [Desonide] | 0.846 |
| Cc1ccc2c(Cl)cc(Cl)c(O)c2n1 [Chlorquinaldol] | 0.851 |
| COCCn1c2c([n+](Cc3cnccn3)c1C)C(=O)c1ccccc1C2=O [Sepantronium Bromide] | 0.99 |
| COc1ccc(C[C@H](C)NC[C@@H](O)c2ccc(O)c(NC=O)c2)cc1 [Formoterol Fumarate Dihydrate] | 0.96 |
| CNC(=O)c1ccc2cc(C3(O)CCn4cncc43)ccc2c1 (centres undefined) [Orteronel] | 1.13 |
| Cc1ccccc1C(C(=O)NC1CCCCC1)N(C(=O)Cn1ccnc1C)c1cccc(F)c1 (centres undefined) | 1.09 |
| COc1ncc(-c2ccc3nccc(-c4ccnnc4)c3c2)cc1NS(=O)(=O)c1ccc(F)cc1F | 0.515 |
| O=C(O)c1ccc(Nc2ncc3c(n2)-c2ccc(Cl)cc2C(c2c(F)cccc2F)=NC3)cc1 | 0.853 ± 0.012 |
| C[C@@H](N)[C@H]1CC[C@H](C(=O)Nc2ccncc2)CC1 | 0.959 |
| CC(C)c1c(C(=O)Nc2ccccc2)c(-c2ccccc2)c(-c2ccc(F)cc2)n1CC[C@@H](O)C[C@@H](O)CC(=O)O [Atorvastatin] | 1.07 |
| COc1ccc2c(Oc3ccc(NC(=O)c4c(C)n(CC(C)(C)O)n(-c5ccccc5)c4=O)nc3)ccnc2c1 | 0.835 |
| CN(C)CCC(c1ccc(Br)cc1)c1ccccn1 (centres undefined) [Brompheniramine] | 1.07 |
| CC1(C)SC2C(NC(=O)[C@H](NC(=O)N3CCNC3=O)c3ccccc3)C(=O)N2C1C(=O)O (some centres undefined) [Azlocillin sodium salt] | 0.956 |
| CCNC1=N[C@@H]2[C@@H](O)[C@H](O)[C@@H](CO)O[C@@H]2S1 [Thiamet G] | 0.965 |
| O=C(c1ccc(/C=C/c2[nH]nc3ccccc23)cc1)N1CCNCC1 | 0.785 ± 0.0081 |
| CN1CCN2c3ccccc3Cc3ccccc3C2C1 (centres undefined) [Mianserin] | 0.956 |

| Structure (SMILES) | GFP- |
| --- | --- |
| C[C@H]1O[C@@H](n2cc(F)c(=O)[nH]c2=O)[C@H](O)[C@@H]1O [Doxifluridine] | 1.1 |
| CC(=O)Nc1cccc2c1c(Sc1ccc(Cl)cc1)c(C)n2CC(=O)O | 1.07 |
| O=C(NC(NC(=S)Nc1ccc(F)c([N+](=O)[O-])c1)C(Cl)(Cl)Cl)C(c1ccccc1)c1ccccc1 (centres undefined) | 1.16 |
| CCS(=O)(=O)Nc1ccc2[nH]c(O)c(/C(=N/c3ccc(CN4CCCCC4)cc3)c3ccccc3)c2c1 [Hesperadin] | 0.811 ± 0.18 |
| C=CC(=O)Nc1cccc(Nc2nc(Nc3ccc(N4CCN(C(C)=O)CC4)cc3OC)ncc2C(F)(F)F)c1 | 0.811 |
| Cc1noc(NS(=O)(=O)c2ccc(N)cc2)c1C [Sulfisoxazole] | 1 |
| NC1=NCC2c3ccccc3Cc3ccccc3N12 (centres undefined) [Epinastine] | 0.971 |
| C=C[C@@]1(C)CC(=O)[C@]2(O)[C@@]3(C)[C@@H](O)CCC(C)(C)[C@@H]3[C@H](O)[C@H](OC(C)=O)[C@@]2(C)O1 [Colforsin] | 0.89 |
| c1ccc([C@H]2CN3CCSC3=N2)cc1 [Levamisole] | 0.961 |
| COc1cc2nc(N(C)CCCNC(=O)C3CCCO3)nc(N)c2cc1OC (centres undefined) [Alfuzosin Hydrochloride, Alfuzosin] | 1.25 |
| N#CC[C@H](C1CCCC1)n1cc(-c2ncnc3[nH]ccc23)cn1 [Ruxolitinib] | 0.944 ± 0.17 |
| O=C(Nc1ccccc1)c1ccccc1O [Salicylanilide] | 0.885 |
| CC(=O)Oc1ccccc1C(=O)Nc1ncc([N+](=O)[O-])s1 [Nitazoxanide] | 1.18 |
| CC(C)(OCc1nn(Cc2ccccc2)c2ccccc12)C(=O)O [Bindarit] | 1.09 |
| O=C(CCCS)NC1CCN(C(=O)COc2ccc(Cl)cc2Cl)CC1 [K-Ras(G12C) inhibitor 6] | 0.999 |
| Nc1ccc(C(=O)Nc2cccc(-c3nc(N4CCOCC4)c4oc5ncccc5c4n3)c2)cn1 | 0.688 |
| C[C@]12CCC(=O)C=C1[C@@H]1C[C@@H]1[C@H]1[C@@H]3[C@@H]4C[C@@H]4[C@@]4(CCC(=O)O4)[C@@]3(C)CC[C@@H]12 [Drospirenone] | 0.987 |
| CC(=O)[C@]1(O)Cc2c(O)c3c(c(O)c2[C@@H](O[C@H]2C[C@H](N)[C@H](O)[C@H](C)O2)C1)C(=O)c1ccccc1C3=O [Idarubicin, Idarubicin Hydrochloride] | 0.224 |
| CC(C)(C(=O)O)c1ccc(C(O)CCCN2CCC(C(O)(c3ccccc3)c3ccccc3)CC2)cc1 (centres undefined) [Fexofenadine] | 1.09 |
| O=c1[nH]c(=O)n([C@H]2CCCO2)cc1F | 1.2 |
| CCOC(=O)C1=C[C@@H](OC(CC)CC)[C@H](NC(C)=O)[C@@H](N)C1 [Oseltamivir] | 1.08 |
| C[C@@H]1COC(Nc2ccc3ncnc(Nc4ccc(OCc5nccs5)c(Cl)c4)c3c2)=N1 [Varlitinib] | 0.881 |
| CC(=O)O[C@H]1C(=O)[C@@]2(C)C([C@H](OC(=O)c3ccccc3)[C@]3(O)C[C@H](OC(=O)[C@H](O)[C@@H](NC(=O)c4ccccc4)c4ccccc4)C(C)=C1C3(C)C)[C@]1(OC(C)=O)CO[C@@H]1C[C@@H]2O (some centres undefined) [Taxol, Paclitaxel] | 0.505 |
| C[C@H]1[C@H](C)CC[C@]2(C(=O)O)CC[C@]3(C)C(=CC[C@@H]4[C@@]5(C)C[C@@H](O)[C@H](O)[C@@](C)(CO)[C@@H]5CC[C@]43C)[C@H]12 [Asiatic Acid] | 0.976 |
